# ± gives the standard deviation of the averaged measurements. Some of the results follow.
# What was measured:
# Assay in all cases: NP40-soluble protein abundance relative to vehicle (solubility fold change) (ratio); higher = more soluble protein in presence of GTP
# USP1 = biological target: T1, USP1 (UniProt O94782)
# T1 sequence (whole entry): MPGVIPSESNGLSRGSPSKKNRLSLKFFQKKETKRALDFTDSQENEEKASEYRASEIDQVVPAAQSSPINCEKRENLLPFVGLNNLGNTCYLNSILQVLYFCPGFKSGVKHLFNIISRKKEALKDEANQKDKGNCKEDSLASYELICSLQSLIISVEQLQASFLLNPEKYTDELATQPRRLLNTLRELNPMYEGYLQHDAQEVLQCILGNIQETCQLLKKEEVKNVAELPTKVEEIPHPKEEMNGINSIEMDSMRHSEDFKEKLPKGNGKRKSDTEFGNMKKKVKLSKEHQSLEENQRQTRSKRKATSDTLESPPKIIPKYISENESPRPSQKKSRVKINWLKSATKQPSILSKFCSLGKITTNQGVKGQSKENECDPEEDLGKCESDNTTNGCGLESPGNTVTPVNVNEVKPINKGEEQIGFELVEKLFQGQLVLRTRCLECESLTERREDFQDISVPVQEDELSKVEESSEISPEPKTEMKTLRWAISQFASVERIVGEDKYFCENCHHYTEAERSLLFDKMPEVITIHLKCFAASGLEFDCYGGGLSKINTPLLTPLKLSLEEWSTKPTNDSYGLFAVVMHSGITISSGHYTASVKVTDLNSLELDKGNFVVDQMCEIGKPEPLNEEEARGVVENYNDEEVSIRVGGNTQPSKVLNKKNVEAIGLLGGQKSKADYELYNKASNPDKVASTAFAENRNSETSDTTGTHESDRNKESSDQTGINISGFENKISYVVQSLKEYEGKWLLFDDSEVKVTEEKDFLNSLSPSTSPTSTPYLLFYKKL
# Summary of the method: (§1)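 Crude Jurkat lysate, prepared by Dounce homogenisation, was exposed to eight concentrations from 0.1 to 10 mM for 10 min at room temperature and then 3 min at 37 °C. Solubilisation used 0.8% NP40 with benzonase for 60 min at 4 °C, followed by ultracentrifugation and TMT labelling of the supernatant for LC-MS/MS. After vsn normalisation of intensities, each value is the fold change against the detergent-processed vehicle within each replicate, across three independent experiments.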
# [1] = biological target: T2, UniProt O95294 and related entries
# T2 sequence (whole entry): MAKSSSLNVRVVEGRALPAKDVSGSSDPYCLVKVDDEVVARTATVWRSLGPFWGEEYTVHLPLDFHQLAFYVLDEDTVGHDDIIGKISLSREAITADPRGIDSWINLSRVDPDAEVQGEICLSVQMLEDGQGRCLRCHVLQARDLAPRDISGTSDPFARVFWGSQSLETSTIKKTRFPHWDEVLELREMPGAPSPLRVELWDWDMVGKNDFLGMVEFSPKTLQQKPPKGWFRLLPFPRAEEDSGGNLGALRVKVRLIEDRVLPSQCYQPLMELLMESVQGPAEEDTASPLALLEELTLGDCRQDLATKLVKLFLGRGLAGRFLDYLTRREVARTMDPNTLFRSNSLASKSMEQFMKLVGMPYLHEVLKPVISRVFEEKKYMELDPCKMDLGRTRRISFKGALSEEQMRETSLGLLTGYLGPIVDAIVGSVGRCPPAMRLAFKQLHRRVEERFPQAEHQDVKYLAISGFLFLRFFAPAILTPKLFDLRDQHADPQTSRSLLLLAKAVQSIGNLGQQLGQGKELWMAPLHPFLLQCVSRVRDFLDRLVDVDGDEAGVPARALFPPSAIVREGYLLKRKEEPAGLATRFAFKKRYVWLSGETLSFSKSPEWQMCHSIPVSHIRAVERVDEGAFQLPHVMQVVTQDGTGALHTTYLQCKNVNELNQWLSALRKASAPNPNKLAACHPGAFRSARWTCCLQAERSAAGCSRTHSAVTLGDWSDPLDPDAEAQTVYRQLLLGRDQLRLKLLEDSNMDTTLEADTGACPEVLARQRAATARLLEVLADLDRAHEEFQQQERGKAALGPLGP
# Summary of the method: as §1
# [2] = biological target: T3, UniProt O95379-3|O95379-4
# T3 sequence (whole entry): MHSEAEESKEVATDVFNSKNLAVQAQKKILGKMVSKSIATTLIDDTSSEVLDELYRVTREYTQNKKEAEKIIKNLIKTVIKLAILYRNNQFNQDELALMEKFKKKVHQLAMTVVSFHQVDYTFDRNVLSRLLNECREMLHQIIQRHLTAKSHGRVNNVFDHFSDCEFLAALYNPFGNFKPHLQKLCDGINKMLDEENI
# Summary of the method: as §1
# [3] = biological target: T4, UniProt O95479 and related entries
# T4 sequence (whole entry): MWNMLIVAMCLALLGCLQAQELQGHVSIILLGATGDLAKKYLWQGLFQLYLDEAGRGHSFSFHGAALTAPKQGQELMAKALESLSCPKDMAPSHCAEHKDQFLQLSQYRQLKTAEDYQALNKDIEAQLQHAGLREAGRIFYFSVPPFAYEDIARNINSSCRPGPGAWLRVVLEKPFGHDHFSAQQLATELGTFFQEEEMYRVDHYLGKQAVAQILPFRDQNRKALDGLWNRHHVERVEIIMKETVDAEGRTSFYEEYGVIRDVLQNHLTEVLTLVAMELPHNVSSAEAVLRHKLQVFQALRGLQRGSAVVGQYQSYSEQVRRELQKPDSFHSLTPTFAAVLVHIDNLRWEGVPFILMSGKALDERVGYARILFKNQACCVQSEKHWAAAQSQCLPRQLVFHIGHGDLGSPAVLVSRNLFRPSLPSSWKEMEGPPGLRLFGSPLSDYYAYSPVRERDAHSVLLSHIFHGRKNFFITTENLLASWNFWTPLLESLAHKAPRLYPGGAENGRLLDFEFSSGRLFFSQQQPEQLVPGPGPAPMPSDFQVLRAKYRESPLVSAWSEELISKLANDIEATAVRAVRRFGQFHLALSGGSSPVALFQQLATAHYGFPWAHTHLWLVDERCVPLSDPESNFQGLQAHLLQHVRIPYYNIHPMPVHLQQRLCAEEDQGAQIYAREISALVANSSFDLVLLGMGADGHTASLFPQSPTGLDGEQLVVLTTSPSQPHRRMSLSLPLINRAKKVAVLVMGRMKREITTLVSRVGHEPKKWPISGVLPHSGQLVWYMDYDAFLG
# Summary of the method: as §1
# [4] = biological target: T5, UniProt O95487 and related entries
# T5 sequence (whole entry): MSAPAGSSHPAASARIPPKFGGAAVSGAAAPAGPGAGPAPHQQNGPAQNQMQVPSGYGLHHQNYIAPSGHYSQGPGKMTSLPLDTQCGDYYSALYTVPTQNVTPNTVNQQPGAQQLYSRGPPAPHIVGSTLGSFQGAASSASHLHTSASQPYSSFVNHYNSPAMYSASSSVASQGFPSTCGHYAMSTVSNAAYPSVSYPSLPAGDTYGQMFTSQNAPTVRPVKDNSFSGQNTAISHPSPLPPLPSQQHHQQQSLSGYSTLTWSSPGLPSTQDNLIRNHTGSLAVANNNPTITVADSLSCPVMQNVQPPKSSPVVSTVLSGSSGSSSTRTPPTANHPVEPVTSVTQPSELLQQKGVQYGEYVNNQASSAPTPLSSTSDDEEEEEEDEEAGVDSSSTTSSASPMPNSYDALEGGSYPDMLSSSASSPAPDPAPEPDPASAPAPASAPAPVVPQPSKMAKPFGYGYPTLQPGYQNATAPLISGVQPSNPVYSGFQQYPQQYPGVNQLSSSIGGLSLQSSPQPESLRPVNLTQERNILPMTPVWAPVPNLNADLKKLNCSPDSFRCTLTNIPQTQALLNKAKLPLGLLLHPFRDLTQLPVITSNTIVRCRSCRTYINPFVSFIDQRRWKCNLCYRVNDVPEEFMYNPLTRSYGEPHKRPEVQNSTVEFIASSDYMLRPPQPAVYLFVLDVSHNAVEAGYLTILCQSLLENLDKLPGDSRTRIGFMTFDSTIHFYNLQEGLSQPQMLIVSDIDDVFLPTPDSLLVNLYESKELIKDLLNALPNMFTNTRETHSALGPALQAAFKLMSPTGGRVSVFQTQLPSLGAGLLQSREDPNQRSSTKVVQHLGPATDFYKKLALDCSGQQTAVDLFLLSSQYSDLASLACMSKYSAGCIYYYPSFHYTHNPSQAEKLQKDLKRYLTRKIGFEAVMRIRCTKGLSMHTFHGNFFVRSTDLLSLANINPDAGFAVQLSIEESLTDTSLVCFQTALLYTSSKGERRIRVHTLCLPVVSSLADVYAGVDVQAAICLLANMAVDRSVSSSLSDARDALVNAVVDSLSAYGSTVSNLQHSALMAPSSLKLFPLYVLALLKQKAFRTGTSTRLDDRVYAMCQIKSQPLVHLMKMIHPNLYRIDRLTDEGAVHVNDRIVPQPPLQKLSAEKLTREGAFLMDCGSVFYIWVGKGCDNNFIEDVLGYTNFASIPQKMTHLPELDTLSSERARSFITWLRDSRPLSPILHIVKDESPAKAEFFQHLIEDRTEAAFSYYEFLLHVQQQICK
# Summary of the method: as §1
# UniProt O95777 = biological target: T6, UniProt O95777
# T6 sequence (whole entry): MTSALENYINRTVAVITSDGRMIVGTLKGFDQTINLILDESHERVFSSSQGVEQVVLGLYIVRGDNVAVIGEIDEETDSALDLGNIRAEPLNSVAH
# Summary of the method: as §1
# VAMP5 = biological target: T7, VAMP5 (UniProt O95183)
# T7 sequence (whole entry): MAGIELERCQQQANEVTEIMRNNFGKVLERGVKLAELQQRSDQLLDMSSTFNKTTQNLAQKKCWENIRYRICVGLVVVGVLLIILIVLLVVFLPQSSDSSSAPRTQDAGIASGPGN
# Summary of the method: as §1
compound,measurement,setting,value
Nc1nc2c(ncn2[C@@H]2O[C@H](COP(=O)(O)OP(=O)(O)OP(=O)(O)O)[C@@H](O)[C@H]2O)c(=O)[nH]1 [guanosine triphosphate],NP40-soluble protein abundance,USP1; concentration: 4mM,0.983 ± 0.039
same,NP40-soluble protein abundance,USP1; concentration: 6mM,0.976 ± 0.016
same,NP40-soluble protein abundance,USP1; concentration: 8mM,0.995 ± 0.025
same,NP40-soluble protein abundance,USP1; concentration: 10mM,0.981 ± 0.026
same,NP40-soluble protein abundance,[1]; concentration: 0.1mM,0.945 ± 0.051
same,NP40-soluble protein abundance,[1]; concentration: 0.5mM,0.934 ± 0.2
same,NP40-soluble protein abundance,[1]; concentration: 1mM,0.928 ± 0.15
same,NP40-soluble protein abundance,[1]; concentration: 2mM,0.894 ± 0.15
same,NP40-soluble protein abundance,[1]; concentration: 4mM,0.947 ± 0.12
same,NP40-soluble protein abundance,[1]; concentration: 6mM,1.01 ± 0.039
same,NP40-soluble protein abundance,[1]; concentration: 8mM,0.979 ± 0.13
same,NP40-soluble protein abundance,[1]; concentration: 10mM,1.04 ± 0.15
same,NP40-soluble protein abundance,[2]; concentration: 0.1mM,0.897 ± 0.024
same,NP40-soluble protein abundance,[2]; concentration: 0.5mM,0.877 ± 0.057
same,NP40-soluble protein abundance,[2]; concentration: 1mM,0.938 ± 0.064
same,NP40-soluble protein abundance,[2]; concentration: 2mM,0.917 ± 0.093
same,NP40-soluble protein abundance,[2]; concentration: 4mM,0.922 ± 0.1
same,NP40-soluble protein abundance,[2]; concentration: 6mM,0.933 ± 0.095
same,NP40-soluble protein abundance,[2]; concentration: 8mM,0.879 ± 0.13
same,NP40-soluble protein abundance,[2]; concentration: 10mM,0.955 ± 0.086
same,NP40-soluble protein abundance,[3]; concentration: 0.1mM,1.04 ± 0.028
same,NP40-soluble protein abundance,[3]; concentration: 0.5mM,0.999 ± 0.023
same,NP40-soluble protein abundance,[3]; concentration: 1mM,1.07 ± 0.044
same,NP40-soluble protein abundance,[3]; concentration: 2mM,1.05 ± 0.081
same,NP40-soluble protein abundance,[3]; concentration: 4mM,0.975 ± 0.093
same,NP40-soluble protein abundance,[3]; concentration: 6mM,1.033 ± 0.0057
same,NP40-soluble protein abundance,[3]; concentration: 8mM,1.05 ± 0.16
same,NP40-soluble protein abundance,[3]; concentration: 10mM,1.02 ± 0.043
same,NP40-soluble protein abundance,[4]; concentration: 0.1mM,1.03 ± 0.059
same,NP40-soluble protein abundance,[4]; concentration: 0.5mM,1.05 ± 0.056
same,NP40-soluble protein abundance,[4]; concentration: 1mM,1.03 ± 0.036
same,NP40-soluble protein abundance,[4]; concentration: 2mM,1.02 ± 0.053
same,NP40-soluble protein abundance,[4]; concentration: 4mM,1.03 ± 0.038
same,NP40-soluble protein abundance,[4]; concentration: 6mM,1.01 ± 0.055
same,NP40-soluble protein abundance,[4]; concentration: 8mM,1.02 ± 0.03
same,NP40-soluble protein abundance,[4]; concentration: 10mM,1.01 ± 0.034
same,NP40-soluble protein abundance,UniProt O95777; concentration: 0.1mM,0.988 ± 0.029
same,NP40-soluble protein abundance,UniProt O95777; concentration: 0.5mM,0.965 ± 0.053
same,NP40-soluble protein abundance,UniProt O95777; concentration: 1mM,1.03 ± 0.029
same,NP40-soluble protein abundance,UniProt O95777; concentration: 2mM,1.03 ± 0.051
same,NP40-soluble protein abundance,UniProt O95777; concentration: 4mM,1.063 ± 0.0049
same,NP40-soluble protein abundance,UniProt O95777; concentration: 6mM,1.05 ± 0.022
same,NP40-soluble protein abundance,UniProt O95777; concentration: 8mM,0.968 ± 0.046
same,NP40-soluble protein abundance,UniProt O95777; concentration: 10mM,0.981 ± 0.043
same,NP40-soluble protein abundance,VAMP5; concentration: 0.1mM,0.923 ± 0.083
same,NP40-soluble protein abundance,VAMP5; concentration: 0.5mM,0.882 ± 0.078
same,NP40-soluble protein abundance,VAMP5; concentration: 1mM,0.973 ± 0.12
same,NP40-soluble protein abundance,VAMP5; concentration: 2mM,0.967 ± 0.066
same,NP40-soluble protein abundance,VAMP5; concentration: 4mM,0.92 ± 0.037
same,NP40-soluble protein abundance,VAMP5; concentration: 6mM,0.933 ± 0.043
same,NP40-soluble protein abundance,VAMP5; concentration: 8mM,0.896 ± 0.15
same,NP40-soluble protein abundance,VAMP5; concentration: 10mM,0.964 ± 0.06

# An excerpt of these results, as tab-separated lines.
compound	measurement	setting	value
Nc1nc2c(ncn2[C@@H]2O[C@H](COP(=O)(O)OP(=O)(O)OP(=O)(O)O)[C@@H](O)[C@H]2O)c(=O)[nH]1 [guanosine triphosphate]	NP40-soluble protein abundance	[1]; concentration: 2mM	0.894 ± 0.15
same	NP40-soluble protein abundance	[1]; concentration: 6mM	1.01 ± 0.039
same	NP40-soluble protein abundance	[2]; concentration: 0.5mM	0.877 ± 0.057
same	NP40-soluble protein abundance	[2]; concentration: 6mM	0.933 ± 0.095
same	NP40-soluble protein abundance	[3]; concentration: 0.5mM	0.999 ± 0.023
same	NP40-soluble protein abundance	[3]; concentration: 8mM	1.05 ± 0.16
same	NP40-soluble protein abundance	[4]; concentration: 0.1mM	1.03 ± 0.059
same	NP40-soluble protein abundance	[4]; concentration: 2mM	1.02 ± 0.053
same	NP40-soluble protein abundance	VAMP5; concentration: 2mM	0.967 ± 0.066
